Experimental data: doi:10.1101/2020.02.19.956243
Results are given in words; binding and its absence hold for the method and conditions named. In cells and extracts the contact can be indirect. Some entries that bind do so weakly or less than the wild type. For some of these results: Tags and fused reporters may be left off the sequences shown.

Protein sequences, listed by entry. Tags and fused reporters are not part of them.
UniProt Q13547: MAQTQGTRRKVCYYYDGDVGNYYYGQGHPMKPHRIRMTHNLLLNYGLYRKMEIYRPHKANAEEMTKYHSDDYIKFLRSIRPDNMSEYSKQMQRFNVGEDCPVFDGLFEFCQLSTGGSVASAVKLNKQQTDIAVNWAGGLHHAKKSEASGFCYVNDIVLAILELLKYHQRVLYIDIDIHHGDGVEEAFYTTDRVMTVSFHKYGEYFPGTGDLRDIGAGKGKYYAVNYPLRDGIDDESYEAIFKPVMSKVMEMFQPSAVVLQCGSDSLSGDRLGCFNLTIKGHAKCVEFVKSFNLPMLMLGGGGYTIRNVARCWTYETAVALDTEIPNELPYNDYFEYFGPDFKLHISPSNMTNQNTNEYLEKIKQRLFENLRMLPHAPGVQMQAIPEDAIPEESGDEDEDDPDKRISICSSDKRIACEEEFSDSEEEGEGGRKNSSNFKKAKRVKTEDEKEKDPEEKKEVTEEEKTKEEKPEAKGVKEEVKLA
UniProt P31311: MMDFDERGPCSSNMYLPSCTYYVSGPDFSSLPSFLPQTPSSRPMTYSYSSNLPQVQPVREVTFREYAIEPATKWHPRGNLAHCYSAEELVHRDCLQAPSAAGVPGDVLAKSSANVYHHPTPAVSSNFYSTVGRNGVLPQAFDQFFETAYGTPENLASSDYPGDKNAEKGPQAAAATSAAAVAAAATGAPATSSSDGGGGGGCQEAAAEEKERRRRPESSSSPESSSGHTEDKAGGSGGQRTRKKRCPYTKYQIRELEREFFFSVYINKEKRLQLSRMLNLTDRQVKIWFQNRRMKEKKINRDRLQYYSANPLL
UniProt P31258: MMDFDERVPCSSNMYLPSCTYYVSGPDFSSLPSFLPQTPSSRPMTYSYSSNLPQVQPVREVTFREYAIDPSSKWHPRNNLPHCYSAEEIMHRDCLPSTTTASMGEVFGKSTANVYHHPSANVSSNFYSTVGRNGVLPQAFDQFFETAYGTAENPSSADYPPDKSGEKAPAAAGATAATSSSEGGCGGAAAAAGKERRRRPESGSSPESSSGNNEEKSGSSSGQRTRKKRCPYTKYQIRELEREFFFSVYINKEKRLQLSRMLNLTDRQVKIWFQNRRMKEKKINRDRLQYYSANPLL

Columns and labels:
[1] = target: T1, HA-tagged SIN3A (UniProt Q96ST3); assay: co-IP
T1 sequence: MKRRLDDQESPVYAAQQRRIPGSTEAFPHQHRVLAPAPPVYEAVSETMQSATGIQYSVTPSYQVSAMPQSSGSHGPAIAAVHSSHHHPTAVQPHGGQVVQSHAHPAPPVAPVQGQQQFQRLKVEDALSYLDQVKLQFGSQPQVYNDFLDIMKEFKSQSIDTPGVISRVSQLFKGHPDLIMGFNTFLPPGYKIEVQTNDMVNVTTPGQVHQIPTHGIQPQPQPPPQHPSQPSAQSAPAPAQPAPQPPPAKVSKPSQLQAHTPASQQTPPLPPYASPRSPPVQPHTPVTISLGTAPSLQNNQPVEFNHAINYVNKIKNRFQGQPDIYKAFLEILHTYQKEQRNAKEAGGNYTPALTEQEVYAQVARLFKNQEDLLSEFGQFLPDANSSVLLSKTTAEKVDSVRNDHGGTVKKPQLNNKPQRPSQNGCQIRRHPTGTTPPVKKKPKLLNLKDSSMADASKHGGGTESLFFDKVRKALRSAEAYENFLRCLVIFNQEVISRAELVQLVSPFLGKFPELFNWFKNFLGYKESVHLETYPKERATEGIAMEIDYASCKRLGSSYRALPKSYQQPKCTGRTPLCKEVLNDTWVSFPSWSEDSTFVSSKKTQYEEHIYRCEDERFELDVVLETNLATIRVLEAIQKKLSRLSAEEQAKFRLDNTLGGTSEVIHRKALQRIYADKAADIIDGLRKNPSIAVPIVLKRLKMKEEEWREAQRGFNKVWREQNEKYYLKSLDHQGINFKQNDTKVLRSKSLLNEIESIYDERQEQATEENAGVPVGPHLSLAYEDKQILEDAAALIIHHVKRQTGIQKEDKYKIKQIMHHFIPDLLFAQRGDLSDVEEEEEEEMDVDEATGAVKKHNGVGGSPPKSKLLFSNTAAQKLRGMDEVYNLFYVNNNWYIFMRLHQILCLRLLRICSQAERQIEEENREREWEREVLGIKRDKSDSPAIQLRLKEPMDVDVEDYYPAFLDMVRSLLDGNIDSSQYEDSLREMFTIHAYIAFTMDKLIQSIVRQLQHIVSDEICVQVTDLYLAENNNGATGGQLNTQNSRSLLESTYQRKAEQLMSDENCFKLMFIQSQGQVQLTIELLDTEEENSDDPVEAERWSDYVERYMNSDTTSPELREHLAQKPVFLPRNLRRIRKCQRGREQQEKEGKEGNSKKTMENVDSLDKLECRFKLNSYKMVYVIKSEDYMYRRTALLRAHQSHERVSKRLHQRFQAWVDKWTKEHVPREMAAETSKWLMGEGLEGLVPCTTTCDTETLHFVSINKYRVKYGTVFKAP

[2] = target: HA-tagged HDAC1 (UniProt Q13547); assay: co-IP

| Substance | binding [1] | binding [2] |
| --- | --- | --- |
| FLAG-tagged full length HoxA11 (mouse) (from UniProt P31311 1-313) | binds | binds |
| chicken HoxA11 protein (from UniProt P31258 1-297) | no binding | no binding |
